Results from one PubChem assay

The results are deposited in PubChem (AID504749; NCATS, 2011).

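Malaria parasite (P. falciparum) lines kept in red blood cells; parasite DNA is measured by SYBR Green fluorescence after lysis, 72 h after compound addition.
Each compound was titrated across a series from about 0.000037 to 29 µM.
The number is the fitted AC50, the concentration giving a half-maximal change in signal; a lower value means higher potency, whether the curve shows a decrease or an increase.
Calls follow the curve class and fit quality: every row here is inconclusive, covering signal-raising curves and weak, poorly fitted, partial or highest-dose-only inhibition curves.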

Values are in nM.
Every entry below has the call inconclusive.
These entries are mostly ones the record files as inconclusive; other results of the assay are not listed here.
Potencies fitted to partial, single-point or poorly fitting curves are rough.
Some entries filed as inconclusive have a full curve.
The first word of each remark tells which way the curve ran; it can be opposite to the aim of the assay.

compound | condition | potency (nM) | curve
CN(C)C(=O)CCSC(SCCC(=O)O)c1cccc(/C=C/c2ccc3ccc(Cl)cc3n2)c1 (stereo not shown) | CP247 | 11220 | inhibitor, partial curve
CN(C)C(=O)CCSC(SCCC(=O)O)c1cccc(/C=C/c2ccc3ccc(Cl)cc3n2)c1 (stereo not shown) | DFO2036 | 17782 | inhibitor, single point
CN(C)C(=O)CCSC(SCCC(=O)O)c1cccc(/C=C/c2ccc3ccc(Cl)cc3n2)c1 (stereo not shown) | CP185 | 17782 | inhibitor, single point
CN(C)C(=O)CCSC(SCCC(=O)O)c1cccc(/C=C/c2ccc3ccc(Cl)cc3n2)c1 (stereo not shown) | CP237 | 17782 | inhibitor, single point
CN(C)C(=O)CCSC(SCCC(=O)O)c1cccc(/C=C/c2ccc3ccc(Cl)cc3n2)c1 (stereo not shown) | CP238 | 14125 | inhibitor, single point
CN(C)C(=O)CCSC(SCCC(=O)O)c1cccc(/C=C/c2ccc3ccc(Cl)cc3n2)c1 (stereo not shown) | P94_40 | 17782 | inhibitor, single point
CN(C)C(=O)CCSC(SCCC(=O)O)c1cccc(/C=C/c2ccc3ccc(Cl)cc3n2)c1 (stereo not shown) | CP194 | 19011 | inhibitor, single point
CN(C)C(=O)CCSC(SCCC(=O)O)c1cccc(/C=C/c2ccc3ccc(Cl)cc3n2)c1 (stereo not shown) | N140 | 17782 | inhibitor, single point
CN(C)C(=O)CCSC(SCCC(=O)O)c1cccc(/C=C/c2ccc3ccc(Cl)cc3n2)c1 (stereo not shown) | HB3 | 12589 | inhibitor, single point
CN(C)C(=O)CCSC(SCCC(=O)O)c1cccc(/C=C/c2ccc3ccc(Cl)cc3n2)c1 (stereo not shown) | TAB109 | 15848 | inhibitor, single point
CN(C)C(=O)CCSC(SCCC(=O)O)c1cccc(/C=C/c2ccc3ccc(Cl)cc3n2)c1 (stereo not shown) | AA1029 | 11220 | inhibitor, single point
CN(C)C(=O)CCSC(SCCC(=O)O)c1cccc(/C=C/c2ccc3ccc(Cl)cc3n2)c1 (stereo not shown) | CP297 | 10690 | inhibitor, partial curve, poor fit
CN(C)C(=O)CCSC(SCCC(=O)O)c1cccc(/C=C/c2ccc3ccc(Cl)cc3n2)c1 (stereo not shown) | ECU | 15848 | inhibitor, single point
CN(C)C(=O)CCSC(SCCC(=O)O)c1cccc(/C=C/c2ccc3ccc(Cl)cc3n2)c1 (stereo not shown) | GB4 | 15101 | inhibitor, single point
CN(C)C(=O)CCSC(SCCC(=O)O)c1cccc(/C=C/c2ccc3ccc(Cl)cc3n2)c1 (stereo not shown) | TAB113 | 12589 | inhibitor, single point
CN(C)C(=O)CCSC(SCCC(=O)O)c1cccc(/C=C/c2ccc3ccc(Cl)cc3n2)c1 (stereo not shown) | CP191 | 10000 | inhibitor, single point
CN(C)C(=O)CCSC(SCCC(=O)O)c1cccc(/C=C/c2ccc3ccc(Cl)cc3n2)c1 (stereo not shown) | CP335 | 16944 | inhibitor, single point
CN(C)C(=O)CCSC(SCCC(=O)O)c1cccc(/C=C/c2ccc3ccc(Cl)cc3n2)c1 (stereo not shown) | P93_24 | 11220 | inhibitor, single point
CN(C)C(=O)CCSC(SCCC(=O)O)c1cccc(/C=C/c2ccc3ccc(Cl)cc3n2)c1 (stereo not shown) | 3D7 | 19952 | inhibitor, single point
CN(C)C(=O)CCSC(SCCC(=O)O)c1cccc(/C=C/c2ccc3ccc(Cl)cc3n2)c1 (stereo not shown) | SC27B | 10000 | inhibitor, single point
CN(C)C(=O)CCSC(SCCC(=O)O)c1cccc(/C=C/c2ccc3ccc(Cl)cc3n2)c1 (stereo not shown) | CP217 | 10000 | inhibitor, single point
CN(C)C(=O)CCSC(SCCC(=O)O)c1cccc(/C=C/c2ccc3ccc(Cl)cc3n2)c1 (stereo not shown) | TAB165 | 15848 | inhibitor, single point
CN(C)C(=O)CCSC(SCCC(=O)O)c1cccc(/C=C/c2ccc3ccc(Cl)cc3n2)c1 (stereo not shown) | DIV17 | 16944 | inhibitor, single point
CN(C)C(=O)CCSC(SCCC(=O)O)c1cccc(/C=C/c2ccc3ccc(Cl)cc3n2)c1 (stereo not shown) | CP252 | 17782 | inhibitor, single point
CN(C)C(=O)CCSC(SCCC(=O)O)c1cccc(/C=C/c2ccc3ccc(Cl)cc3n2)c1 (stereo not shown) | CP286 | 17782 | inhibitor, single point
CN(C)C(=O)CCSC(SCCC(=O)O)c1cccc(/C=C/c2ccc3ccc(Cl)cc3n2)c1 (stereo not shown) | CP260 | 17782 | inhibitor, single point
CN(C)C(=O)CCSC(SCCC(=O)O)c1cccc(/C=C/c2ccc3ccc(Cl)cc3n2)c1 (stereo not shown) | ATS95 | 17782 | inhibitor, single point
CN(C)C(=O)CCSC(SCCC(=O)O)c1cccc(/C=C/c2ccc3ccc(Cl)cc3n2)c1 (stereo not shown) | Dd2 | 14125 | inhibitor, partial curve
CN(C)C(=O)CCSC(SCCC(=O)O)c1cccc(/C=C/c2ccc3ccc(Cl)cc3n2)c1 (stereo not shown) | DIV30 | 9528 | inhibitor, partial curve
CN(C)C(=O)CCSC(SCCC(=O)O)c1cccc(/C=C/c2ccc3ccc(Cl)cc3n2)c1 (stereo not shown) | ATS189 | 11220 | inhibitor, single point
CN(C)C(=O)CCSC(SCCC(=O)O)c1cccc(/C=C/c2ccc3ccc(Cl)cc3n2)c1 (stereo not shown) | C2A | 11220 | inhibitor, single point
CNC[C@H](O)c1cccc(O)c1 | W2 | 849.2 | inhibitor, full curve
CNC[C@H](O)c1cccc(O)c1 | PAD | 14125 | activator, partial curve, poor fit
CNC[C@H](O)c1cccc(O)c1 | CP215 | 19011 | inhibitor, single point
CNC[C@H](O)c1cccc(O)c1 | CP335 | 4256 | inhibitor, single point
CNC[C@H](O)c1cccc(O)c1 | CP315 | 3381 | inhibitor, single point
CCN(CC)CCN1C(=O)CN=C(c2ccccc2F)c2cc(Cl)ccc21 | CP185 | 12589 | inhibitor, single point
CCN(CC)CCN1C(=O)CN=C(c2ccccc2F)c2cc(Cl)ccc21 | 7G8 | 17782 | inhibitor, single point
CCN(CC)CCN1C(=O)CN=C(c2ccccc2F)c2cc(Cl)ccc21 | CP291 | 3381 | inhibitor, partial curve, poor fit
CCN(CC)CCN1C(=O)CN=C(c2ccccc2F)c2cc(Cl)ccc21 | CP265 | 14125 | inhibitor, single point

For reference, 3 entries once more:

{"compound": "CNC[C@H](O)c1cccc(O)c1", "condition": "W2", "potency (nM)": "849.2", "curve": "inhibitor, full curve"}
{"compound": "CN(C)C(=O)CCSC(SCCC(=O)O)c1cccc(/C=C/c2ccc3ccc(Cl)cc3n2)c1", "stereo": "stereo not shown", "condition": "TAB113", "potency (nM)": "12589", "curve": "inhibitor, single point"}
{"compound": "CN(C)C(=O)CCSC(SCCC(=O)O)c1cccc(/C=C/c2ccc3ccc(Cl)cc3n2)c1", "stereo": "stereo not shown", "condition": "CP217", "potency (nM)": "10000", "curve": "inhibitor, single point"}